This is an account of results in patent US20180371384A1, “METHOD FOR PRODUCING ROOTING-SUPPRESSED MALT” (SUNTORY HOLDINGS LIMITED, priority 2015, published 2018).

The test system of the series is barley (Sukai Golden). The series can be described thus: Amount of rooting, yield and length of acrospires (Test Example 3). The class given is in vivo. The note with it: roots-removed malts from 100 g of barley. From the text:
Here, the rooting amount used herein means total weight of a root thrusting out of the surface of each grain in malts which are malted from 100 g of raw material barley.
Crops of Sukai Golden harvested in the year 2013 (99% of germination ratio) were used as domestic (Japan) two-row malting barley cultivar. and steeping conditions were the same as those in Test Example 1. A standard in which steeping of barley was earned out in pure water (pH 7.0) was defined as “normal steeping bailey (Comparative Example 2),” and a standard in which steeping of barley was earned out in an aqueous solution having a pH listed in Table 3 with phosphoric acid was defined as “acidic steeping barley (Example 2),” and three batches of malts each of which was obtained by going through the steps of steeping, germination and kilning were prepared. For each of batches of the normal malts and the acidic steeping barley obtained, the weight of rooting was obtained, and an average length of acrospires and an yield were obtained in the same manner as Test Example 1 to calculate an average thereof. In addition, each of the contents of an acrid component and β-glucan was measured as follows, and the contents of enzymes were measured in the same manner as Test Example 2. […] In addition, the germination was carried out for 5 days while keeping a temperature at 20° C. In addition, an yield was calculated as X/100 (%) from X g of a weight of roots-removed malts obtained from 100 g of barley.

As for `O=P(O)(O)O` [Phosphoric Acid, phosphoric acid], the Yield by setting is: (Initial pH 1.5, 223 mM) 91.8%; (Initial pH 1.6, 176 mM) 91.8%; (Initial pH 1.8, 82 mM) 91.2%; (Initial pH 2.0, 29 mM) 90.6%; (Initial pH 2.2, 18 mM) 89.0%; (Initial pH 2.4, 7 mM) 87.5%.
